PubChem BioAssay AID504467 (National Center for Advancing Translational Sciences (NCATS), 2011)
About 7,700 (2.3%) of roughly 330,000 compounds were called active. Inconclusive means that the source gave no clear call. Such entries were picked first, then a sample of the others. The call rests on the fitted dose curve; in most records, active means well fitted inhibition curve with a large enough effect; inconclusive means small, poorly fitted or top-dose-only effect, or effect the other way; inactive means flat fitted curve, though single readings scatter. A potency beside an inconclusive call is a rough fit, not a confirmed value.

Assay: qHTS screen for small molecules that inhibit ELG1-dependent DNA repair in human embryonic kidney (HEK293T) cells expressing luciferase-tagged ELG1; further: nearly all actives have a fitted effect of over 55% in size
Conditions: HEK293T ELG1-luciferase reporter, luminescence, 16 h, DNA damage induced by 5-fluorouridine; series mostly up to 46.1 µM
In short: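 Reporter activity after DNA damage by 5-fluorouridine is monitored. Compound-treated cells incubate 16 hr at 37 °C, then ONE-Glo is added for 30 min before luminescence reading.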
Potency means the concentration at half of the fitted maximal effect.

SMILES	Potency
O=C(Oc1ccc(Cl)c2cccnc12)c1ccco1	inconclusive: 16.4 µM [inhibitor, partial curve, poor fit]
CCc1ccc(NC(=O)C2CCCCC2C(=O)O)cc1 (centres undefined)	inconclusive: 7.31 µM [activator, partial curve]
O=C(NCCCN1CCOCC1)C(=O)NCC1OCCN1S(=O)(=O)c1ccc(Br)cc1 (centres undefined)	inconclusive: 0.82 µM [activator, single point]
CCc1nc2ccc(C(=O)N(C)CC(=O)Nc3ccc(Cl)c(C(F)(F)F)c3)cc2nc1CC	inconclusive: 16.4 µM [inhibitor, single point]
O=C(Nc1ccccc1)c1ccccc1O	inconclusive: 6.51 µM [activator, single point]
N=C1/C(=C\c2ccc(OC(=O)c3ccc(F)cc3)cc2)C(=O)N=C2SC(N3CCCC3)=NN12	inconclusive: 3.66 µM [activator, full curve, poor fit]
CCCCOc1ccc(N(CC(=O)NC(C)C)C(=O)CCC(=O)Nc2ccccn2)cc1	inconclusive: 18.3 µM [activator, partial curve, poor fit]
COc1cc(NC(=S)NCCc2c[nH]c3ccccc23)c(OC)cc1Cl	inconclusive: 20.6 µM [inhibitor, single point]
COC(=O)C(C)NC(=O)CNS(=O)(=O)c1ccc(F)cc1 (centres undefined)	inactive
O=S(=O)(c1ccc(SCc2ccccc2F)nc1)N1CCCC1	inconclusive: 18.3 µM [activator, partial curve]
CCCCOC(=O)n1c(=S)oc2cc(Cl)ccc21	inconclusive: 23.1 µM [activator, single point]
CCOC(=O)N1CCN(C(=O)C(NC(=O)c2ccc(C(C)(C)C)cc2)C(C)C)CC1 (centres undefined)	inconclusive: 29.1 µM [inhibitor, single point]
O=C(Nc1ccc(-c2ccc3nncn3n2)cc1)c1ccc(Br)o1	inactive
Clc1ccc(SCc2nc3ccccc3[nH]2)cc1	inconclusive: 23.1 µM [activator, partial curve]
C=CCn1c(SCC(=O)c2cccs2)nc2sc(C)cc2c1=O	inconclusive: 20.6 µM [inhibitor, partial curve, poor fit]
Cn1ncc(Br)c1C(=O)Nc1c(F)c(F)cc(F)c1F	inconclusive: 2.31 µM [activator, single point]
Cn1cc(CCC(=O)NCc2ccc(Cl)cc2)c2ccccc21	inconclusive: 29.1 µM [inhibitor, single point]
COc1ccc(Cl)cc1C(=O)OCC(=O)NC(=O)c1cccn1C	inactive
CCOC(=O)c1cc(-c2ccccc2)n(CC(=O)Nc2ccc(OCC)cc2)c1C	inconclusive: 23.1 µM [activator, partial curve, poor fit]
Fc1ccccc1NC(=S)NCCc1ccc(Cl)cc1	inconclusive: 13 µM [activator, partial curve]
Cc1ccc(S(=O)(=O)N2CCOCC2)cc1C(=O)N1CCN(c2ccc(C(F)(F)F)cn2)CC1	inconclusive: 23.1 µM [inhibitor, partial curve]
Cc1c(N2C(=O)CS/C2=N\N=C\c2ccc(Br)cc2)c(=O)n(-c2ccccc2)n1C	inactive

Reprinted from the results shown for reference:
SMILES	Potency
C=CCn1c(SCC(=O)c2cccs2)nc2sc(C)cc2c1=O	inconclusive: 20.6 µM [inhibitor, partial curve, poor fit]
Cn1ncc(Br)c1C(=O)Nc1c(F)c(F)cc(F)c1F	inconclusive: 2.31 µM [activator, single point]

(list continues)

SMILES	Potency
Nc1nnnn1/N=C/c1ccccc1	inconclusive: 23.1 µM [activator, single point]
CCOc1ccc(OCc2cccc(C(=O)N/N=C/c3cccnc3)c2)cc1	inconclusive: 0.366 µM [activator, partial curve]
COc1ccccc1-c1c(C)oc2cc(OC(=O)c3ccco3)ccc2c1=O	inactive
COc1ccc(NS(=O)(=O)c2cc(NC(=O)c3cc(F)c(F)cc3Cl)ccc2N2CCOCC2)cc1	inconclusive: 25.9 µM [inhibitor, single point]
CCN1CCc2c(sc(N)c2C(N)=O)C1	inactive
Cc1ccc(N(C)S(=O)(=O)c2cc(-c3cnc(C4CC4)o3)ccc2C)cc1	active: 16.4 µM
COc1cc(Cl)c(C)cc1Nc1ncccn1	inactive
O=C(Nc1cccc(NC(=O)c2ccc(Cl)cc2)n1)c1ccc(Cl)cc1	inconclusive: 7.3 µM [activator, single point]
COc1cc(/C=N/Nc2ccccc2)ccc1OC(=O)c1cccs1	inconclusive: 18.4 µM [activator, partial curve]
Oc1cc(Nc2cccnc2)cc2cccnc12	inconclusive: 14.6 µM [inhibitor, partial curve]
COC(=O)c1ccccc1SC(CC(=O)c1ccccc1)c1ccc(F)cc1 (centres undefined)	inconclusive: 18.3 µM [activator, single point]
CCN1CCOC(CC(=O)Nc2cccc([N+](=O)[O-])c2)C1=O (centres undefined)	inconclusive: 16.4 µM [activator, partial curve]
CN(C)c1nc(C=C(C#N)C#N)c(Cl)n1-c1ccc(F)cc1	inconclusive: 2.06 µM [activator, partial curve, poor fit]
O=C1/C(=C/c2ccccc2)N=C(N2CCOCC2)N1c1cccc(Cl)c1	inconclusive: 16.4 µM [inhibitor, single point]
COc1ccc(C(=O)N(Cc2ccccc2)c2cccc(C)c2)cc1	inconclusive: 6.51 µM [activator, partial curve]
NC(=S)Nc1cnc2ccccc2c1	inconclusive: 16.4 µM [activator, single point]
COc1ccc(-n2nc([N+](=O)[O-])c(=NCCc3ccc(Cl)cc3)n2O)cc1	inactive
Cc1ccccc1-n1nnnc1SC(C)C(=O)NC1CCCc2ccccc21 (centres undefined)	inconclusive: 14.6 µM [inhibitor, partial curve]
O=C(CCNS(=O)(=O)c1cccs1)N1CCN(c2cccc(C(F)(F)F)c2)CC1	inactive
O=C(NC1CCCCCC1)C(Cc1ccccc1)n1cccc1 (centres undefined)	inactive
Cc1[nH]c(=S)c(C#N)c(C)c1Cc1ccc(Cl)cc1Cl	inconclusive: 29.1 µM [inhibitor, single point]
O=C(NCc1cccc(C(F)(F)F)c1)c1ccc2c(c1)OCCO2	inconclusive: 23.1 µM [activator, partial curve, poor fit]

Pulled by structure from the entries so far, 2 records:
SMILES	Potency
CCN1CCc2c(sc(N)c2C(N)=O)C1	inactive
O=C(Nc1ccc(-c2ccc3nncn3n2)cc1)c1ccc(Br)o1	inactive
